From article PMC3366936 come the findings set out here.

The chains behind the UniProt entries cited, without tags or fusion partners.
UniProt Q96CV9: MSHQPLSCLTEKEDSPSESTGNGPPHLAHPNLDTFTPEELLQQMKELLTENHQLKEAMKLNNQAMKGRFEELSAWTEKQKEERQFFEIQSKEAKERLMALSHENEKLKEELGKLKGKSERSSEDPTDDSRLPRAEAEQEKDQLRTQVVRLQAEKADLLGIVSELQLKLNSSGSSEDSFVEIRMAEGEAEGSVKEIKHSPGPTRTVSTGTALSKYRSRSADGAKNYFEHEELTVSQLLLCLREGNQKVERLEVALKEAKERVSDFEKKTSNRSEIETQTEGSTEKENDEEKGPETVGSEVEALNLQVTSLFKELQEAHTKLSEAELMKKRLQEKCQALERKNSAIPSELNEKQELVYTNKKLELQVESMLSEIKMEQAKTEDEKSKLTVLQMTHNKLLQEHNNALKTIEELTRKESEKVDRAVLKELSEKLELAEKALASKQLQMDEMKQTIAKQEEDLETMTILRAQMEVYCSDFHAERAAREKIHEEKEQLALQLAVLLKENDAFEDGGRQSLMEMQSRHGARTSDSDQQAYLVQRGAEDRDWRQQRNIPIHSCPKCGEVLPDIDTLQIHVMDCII
UniProt Q13546: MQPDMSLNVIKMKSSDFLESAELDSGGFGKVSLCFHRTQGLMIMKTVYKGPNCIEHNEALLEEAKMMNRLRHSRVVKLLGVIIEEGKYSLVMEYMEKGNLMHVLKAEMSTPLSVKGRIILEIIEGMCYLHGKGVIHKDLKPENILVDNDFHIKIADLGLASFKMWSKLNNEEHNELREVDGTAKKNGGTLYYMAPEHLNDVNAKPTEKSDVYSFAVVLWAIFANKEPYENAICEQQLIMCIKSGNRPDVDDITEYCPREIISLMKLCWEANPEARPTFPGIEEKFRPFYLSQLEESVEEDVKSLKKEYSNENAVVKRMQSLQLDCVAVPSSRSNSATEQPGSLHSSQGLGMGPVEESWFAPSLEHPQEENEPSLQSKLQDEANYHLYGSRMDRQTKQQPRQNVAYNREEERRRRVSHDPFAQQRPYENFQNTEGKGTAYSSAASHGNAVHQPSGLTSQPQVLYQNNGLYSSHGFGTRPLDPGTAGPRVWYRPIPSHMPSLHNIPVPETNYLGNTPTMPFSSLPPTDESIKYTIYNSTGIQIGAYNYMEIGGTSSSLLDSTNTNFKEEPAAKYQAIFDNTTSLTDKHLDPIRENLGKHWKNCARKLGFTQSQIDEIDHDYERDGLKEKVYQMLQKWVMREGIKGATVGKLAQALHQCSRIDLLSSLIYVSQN

The target of this experiment is HA-tagged optineurin expressed in KB cells (UniProt Q96CV9). Kind of experiment: co-IP; KB and KB/14.7K cells transfected with HA-tagged optineurin, 50 ng/mL TNF for 10 min (or left untreated); lysates on anti-HA agarose at 4°C overnight; Western blot.

These are yes or no findings as the source states them, for the method shown. Binding seen in cells or lysates may run through a third protein. Some binding calls cover weakened binding; strength is not graded here.

With RIP1 (from UniProt Q13546 1-671), the binding result was “binds”.
